The results in this text go back to article doi:10.1101/2024.10.01.615909 (bioRxiv, 2024).

This experiment addresses taxol-stabilized microtubules. Put plainly: co-sedimentation.

No constants are given. Whether binding was seen depends on the method and setting. In cells and extracts the contact can be indirect. Binding can be weak; no strength is given. Where a sequence is shown, tags or fusion partners need not be part of it.

B1: His8-SUMO (HS)-IQD2 (natural protein)
chain: MGKKAKWFSSVKKAFSPDSKKSKQKLAEGQNGVISNPPVVDNVRQSSSSPPPALAPREVRVAEVIVERNRDLSPPSTADAVNVTATDVPVVPSSSAPGVVRRATPTRFAGKSNEEAAAILIQTIFRGYLARRALRAMRGLVRLKLLMEGSVVKRQAANTLKCMQTLSRVQSQIRARRIRMSEENQARQKQLLQKHAKELAGLKNGDNWNDSIQSKEKVEANLLSKYEATMRRERALAYSYSHQQNWKNNSKSGNPMFMDPSNPTWGWSWLERWMAGRPLESSEKEQSNSNNDNAASVKGSINRNEAAKSLTRNGSTQPNTPSSARGTPRNKNSFFSPPTPSRLNQSSRKSNDDDSKSTISVLSERNRRHSIAGSSVRDDESLAGSPALPSYMVPTKSARARLKPQSPLGGTTQENEGFTDKASAKKRLSYPTSPALPKPRRFSAPPKVESGGVTVTNGAGS
On to B1, for which the binding result is “binds”.
